{"sequences": {"note": "The chains behind the UniProt entries cited, without tags or fusion partners.", "UniProt Q9DAK2": "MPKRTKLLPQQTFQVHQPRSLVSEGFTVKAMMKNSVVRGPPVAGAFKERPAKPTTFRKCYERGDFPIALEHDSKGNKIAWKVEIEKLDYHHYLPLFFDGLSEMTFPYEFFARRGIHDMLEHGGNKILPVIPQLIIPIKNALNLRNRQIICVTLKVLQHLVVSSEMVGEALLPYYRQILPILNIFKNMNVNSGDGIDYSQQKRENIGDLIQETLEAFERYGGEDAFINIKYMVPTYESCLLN"}, "source": "paper PMC8592874", "key": {"[1]": {"target": "Parkin coregulated gene (PACRG) protein, mouse (mouse (endogenous in testis)) (UniProt Q9DAK2)", "experiment": "co-IP; testicular lysates of 4 to 5-month-old control or MEIG1 Y68A mutant mice; a monoclonal anti-PACRG antibody was used for the pull-down; MEIG1 detected by blot"}, "[2]": {"target": "Parkin coregulated gene (PACRG) protein, mouse (mouse (endogenous in testis)), Q9DAK2", "experiment": "co-IP; testicular lysates of 4 to 5-month-old control or MEIG1 Y68A mutant mice; a monoclonal anti-PACRG antibody was used for the pull-down; MEIG1 detected by blot", "conditions": "remark: other sources report otherwise"}}, "note": "No constants are given. Whether binding was seen depends on the method and setting. In cells and extracts the contact can be indirect. Some results given as binding are weak or reduced against the parent protein; the word gives no strength.", "data": [{"binder": "meiosis-expressed gene 1 (MEIG1) protein, mouse, wild type (protein, UniProt Q61845 1-88) MATSDVKPKSISRAKKWSEEIENLYRFQQAGYRDEIEYKQVKQVAMVDRWPETGYVKKLQRRDNTFFYYNKERECEDKEVHKVKVYVY", "values": [{"measurement": "binding", "setting": "[1]", "result": "binds"}]}, {"binder": "MEIG1 Y68A mutant protein, mouse, Q61845 1-88 (protein) MATSDVKPKSISRAKKWSEEIENLYRFQQAGYRDEIEYKQVKQVAMVDRWPETGYVKKLQRRDNTFFAYNKERECEDKEVHKVKVYVY", "values": [{"measurement": "binding", "setting": "[2]", "result": "no binding"}]}]}
